# Results reported in PubChem BioAssay (NCATS).
# Where “and” joins values, the source holds several entries; their conditions need not be identical. Identical values can stand only once. Inconclusive means that the source gave no clear call. Such entries were picked first, then a sample of the others. Where the call is inconclusive, the potency comes from a doubtful curve fit. Some compounds were tested as several samples or in several runs, with calls that do not always agree. Calls of active or inactive are those of the source. Calls follow the shape of the dose curve; as a rule, active = well fitted inhibition curve with a large enough effect; inconclusive = small, poorly fitted or top-dose-only effect; inactive = flat fitted curve, though single readings scatter.
# Molecular target: Luciferin 4-monooxygenase (Photinus pyralis) (UniProt P08659)
# Experiment: qHTS screen for small molecules that inhibit ELG1-dependent DNA repair: Hit Confirmation in Biochemical Luciferin Assay (AID 624253)
# Conditions: purified firefly luciferase, luminescence counter-screen; series mostly up to 57.5 µM
# Text: Cancer cells divide rapidly compared to normal cells in the body. During cell division, cancer cells need to duplicate their genome by DNA replication. The failure of genome duplication leads to cancer cells' death. Therefore, inhibitors of DNA replication could specifically kill cancer cells. Based on this concept, many chemotherapeutic agents were developed and have been used to treat cancer patients. However, there are a limited number of agents available in the clinical setting, and some of those that do exist have low efficacy and severe side effects. Therefore, if we can find the compounds that effectively block DNA replication either by directly damaging DNA or by inhibiting other cellular mechanisms, the options for cancer treatment will be broadened. With this in mind, we developed a quantitative high-throughput ELG1-luciferase reporter gene assay. Small molecules that specifically block ELG1 function in response to DNA damage can be identified by monitoring the suppression of luciferase activity. Since ELG1 defines a pathway for repairing DNA damage, agents blocking ELG1 function can be used to sensitize cancer cells to chemotherapeutic agents whose mechanism of action involves the induction of DNA damage. NIH Molecular Libraries Probe Production Network [MLPCN] NIH Chemical Genomics Center [NCGC] MLPCN Grant: R03 MH092164 Assay Provider: Kyungjae Myung, NHGRI, NIH
# 3 uL of substrate reagent will be pipetted into each well in 1536-well white, solid-bottom plates using a FRD dispenser, followed by addition of 23 nL of DMSO or compounds by pintool. After compound addition, 1 µL of luciferase will be added into the wells. The plates will be read in a ViewLux CCD-based plate reader.
# Potency is read from the fitted curve at half-maximal effect.
row,SMILES,Potency
1,Cc1ccccc1OCc1nc2ccccc2c(=O)n1/N=C/c1cn[nH]c1-c1ccccc1,inactive
2,O=C(c1cc(COc2ccc3ncccc3c2)on1)N1CCCC1,"inconclusive: 18.4 µM [inhibitor, partial curve, poor fit]"
3,CCC1CCCCN1CCCNC(=O)c1ccc2nc(N3CCC(C)CC3)sc2c1 (stereo not given),"inconclusive: 13 µM [inhibitor, partial curve]"
4,CCOC(=O)N1CCN(C(=O)CSCC(=O)Nc2nc(-c3ccc(-c4ccccc4)cc3)cs2)CC1,"inconclusive: 3.76 µM [inhibitor, full curve] and inconclusive: 3.26 µM [inhibitor, full curve]"
5,CCOC(=O)c1cccc(NC(=O)C2CCN(c3ncnc4c3nc3n4CCCCC3)CC2)c1,"inconclusive: 36.6 µM [inhibitor, partial curve, poor fit]"
6,COc1ccc(NC(=O)c2sc3nc(N4CCOCC4)c4c(c3c2N)CC(C)(C)OC4)cc1,inactive
7,O=C(C1CCCN(S(=O)(=O)c2ccccc2)C1)N1CCN(c2ccc(F)cc2)CC1 (stereo not given),inactive
8,CC(=O)Nc1ccc(SCC(=O)c2cc(C)n(Cc3cccs3)c2C)cc1,active: 13 µM
9,CS(=O)c1ccc(/C=C2\C=Cc3ccccc32)cc1 (stereo not given),active: 1.03 µM
10,Fc1ccccc1-c1csc(=Nc2cccnc2)n1CCCn1ccnc1,"inconclusive: 23.1 µM [inhibitor, partial curve, poor fit]"
11,OCCCNc1nccc(-c2cc(Nc3cccc(Cl)c3)ncn2)n1,"inconclusive: 20.6 µM [inhibitor, partial curve, poor fit]"
12,CNc1ccc(/C=C2\C=Cc3ccccc32)cc1,active: 0.731 µM
13,CN(C(=O)c1sc2nc(N3CCOCC3)c3c(c2c1N)CCCC3)c1ccccc1,inactive
14,Cc1ccc(-c2nc3ccccc3n3nnnc23)cc1,"inconclusive: 1.64 µM [inhibitor, partial curve, poor fit]"
15,COCc1ccc(-c2c(-c3cc(OC)cc(OC)c3)oc(=O)c3cc(OC)c(OC)cc23)cc1,"inconclusive: 16.4 µM [inhibitor, partial curve, poor fit]"
16,COc1cccc(-c2cc(NCc3cccs3)ncn2)c1,active: 3.66 µM
17,O=C(CSc1nc2ccc(Nc3nc(N4CCOCC4)nc(N4CCOCC4)n3)cc2s1)Nc1ccccc1Cl,inactive
18,O=C(CSCC(=O)N1CCN(c2ccccc2)CC1)Nc1nc(-c2ccc(Cl)s2)cs1,inactive
19,O=C(CSc1nnc(-c2ccc(O)cc2)o1)Nc1ccccc1,"inconclusive: 20.6 µM [inhibitor, partial curve, poor fit]"
20,O=C(CCN1C(=O)c2ccccc2C1=O)Nc1ccc(-c2nc3ccccc3o2)cc1,"inconclusive: 53.1 µM [inhibitor, partial curve, poor fit]"

row,SMILES,Potency
1,C=C1C(c2ccc(C)cc2)=CCc2cc(C)cc(C)c21,active: 5.17 µM
2,c1ccc(CC2CCN(c3ncnc4sccc34)CC2)cc1,"inconclusive: 23.1 µM [inhibitor, partial curve, poor fit]"
3,COc1ccc(-c2cc(-c3ccc(C)cc3)nc(SCc3nnc(-c4ccccc4)o3)c2C#N)cc1OC,inactive
4,Cc1ccc2nc(-c3ccc(C)c(NC(=O)COc4ccc(Br)cc4)c3)oc2c1,"inconclusive: 18.4 µM [inhibitor, partial curve]"
5,C(=C\c1ccc2ccccc2n1)/c1cccnc1,active: 0.291 µM
6,Cc1cc(C(=O)COC(=O)C2=COCCO2)c(C)n1-c1ccccc1,active: 0.092 µM
7,Cc1c(Cc2ccccc2)c(=O)oc2cc(OCC(=O)N3CCC(C(N)=O)CC3)ccc12,"inconclusive: 36.6 µM [inhibitor, partial curve]"
8,Cn1cccc1C(=O)OCC(=O)Nc1ccc2c(c1)OCCO2,active: 2.06 µM
9,O=C(COc1ccccc1F)Nc1ccc(-c2nc3ccccc3s2)cc1,"inconclusive: 25.9 µM [inhibitor, partial curve, poor fit]"
10,O=C(NC1CCCC1)c1cc(COc2ccc3ncccc3c2)on1,"inconclusive: 36.6 µM [inhibitor, partial curve, poor fit]"
11,Cc1ccc(-c2cc(C(=O)NCc3cccs3)no2)cc1,"inconclusive: 1.84 µM [inhibitor, full curve]"
12,COC(=O)c1[nH]c2ccc(C)cc2c1NC(=O)CN1CCN(c2ccccc2)CC1,inactive
13,COc1ccc2c(C)cc(SCC(=O)N3CCOCC3)nc2c1,"inconclusive: 32.6 µM [inhibitor, partial curve, poor fit]"
14,Cc1ccc2c(c1)sc1nc(=O)n(-c3ccccc3)c(=O)n12,"inconclusive: 29.1 µM [inhibitor, partial curve, poor fit]"
15,COc1ccc(OCC(=O)Nc2ccc(-c3nc4cc(C)c(C)cc4o3)cc2)cc1,active: 15 µM
16,O=c1c(-c2ccc(F)cc2)coc2c3c(ccc12)OCCO3,"inconclusive: 0.92 µM [inhibitor, full curve]"
17,O=C(NCc1cccs1)c1cc(-c2ccccc2)on1,"inconclusive: 1.88 µM [inhibitor, full curve] and inconclusive: 1.64 µM [inhibitor, full curve]"
18,Cc1c(C(=O)Nc2ccc(F)cc2)oc2ccc(S(=O)(=O)N3CCC4(CC3)OCCO4)cc12,inactive
19,CCCCCn1c(=O)[nH]c2cc(C(=O)N3CCN(Cc4ccc5c(c4)OCO5)CC3)ccc2c1=O,inactive
20,C(=C\c1c[nH]c2ccccc12)/c1ccc2ccccc2n1,active: 0.116 µM
